We go through two substances from patent US9889182B2 (The Regents of the University of California, priority 2009, dated 2018).

Data set [1] in a line: general procedure: Fmoc solid-phase peptide synthesis; Fmoc PAL PEG PS resin (PerSeptive Biosystems). Particulars: conjugation step.
Data set [2] can be described thus: general procedure: Fmoc solid-phase peptide synthesis; Fmoc PAL PEG PS resin. Particulars: whole synthesis, scale 0.15 mmole, trifluoroacetic acid.

As to “BODIPY-Cys(Arg)9 (CRRRRRRRRR; N-acetyl, C-amide, BODIPY label on Cys)”, in data set [1] (1H NMR, trifluoroacetic acid salt, hydrochloride for conjugate), the “final purity (method not given)” value is given as “better than 95% purity”. In data set [1] (absorption at 502 nm, hydrochloride), the conjugation yield is listed as 56%.
In data set [2], ace-CRRRRRRRRR-am yielded an isolated mass of 40 mg and an isolated yield of 10%.
